Values quoted from earlier work in patent US20070136828A1, “Methods of using molecules related to organic cation transporter 3 (oct3) for treating depression, anxiety neuroses, drug dependencies, and other similar mental disorders” (Biostation Inc., priority 2004, published 2007).
At least one compound was matched to its structure with a doubt left.

System: Male ddY mice
Settings: anti-depressant administration: chlordiazepoxide 100 mg/kg, imipramine 16 mg/kg; Behav Brain Res. 73, 43-46, 1996; cited from earlier work

CNC1=Nc2ccc(Cl)cc2C(c2ccccc2)=[N+]([O-])C1 [chlordiazepoxide]
condition of immobility: shortened
